Experiment [1] deals with T1, IFRD1, bait of the immunoprecipitation-coupled mass spectrometry (IP-MS) (UniProt O00458).
T1 sequence: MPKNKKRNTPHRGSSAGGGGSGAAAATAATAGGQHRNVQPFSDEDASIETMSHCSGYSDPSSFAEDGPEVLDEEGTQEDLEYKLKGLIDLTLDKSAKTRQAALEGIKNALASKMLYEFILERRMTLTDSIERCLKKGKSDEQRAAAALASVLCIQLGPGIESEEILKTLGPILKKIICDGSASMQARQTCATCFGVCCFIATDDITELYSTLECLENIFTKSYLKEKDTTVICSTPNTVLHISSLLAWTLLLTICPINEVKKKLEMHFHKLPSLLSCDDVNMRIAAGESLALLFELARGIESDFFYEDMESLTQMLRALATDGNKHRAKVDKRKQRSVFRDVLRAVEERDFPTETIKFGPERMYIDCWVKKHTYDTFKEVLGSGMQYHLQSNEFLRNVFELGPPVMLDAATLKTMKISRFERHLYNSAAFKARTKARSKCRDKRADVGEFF
Briefly: affinity purification with mass spectrometry; immunoprecipitation-coupled mass spectrometry (IP-MS) against IFRD1.

The chains behind the UniProt entries cited, without tags or fusion partners.
UniProt P19474: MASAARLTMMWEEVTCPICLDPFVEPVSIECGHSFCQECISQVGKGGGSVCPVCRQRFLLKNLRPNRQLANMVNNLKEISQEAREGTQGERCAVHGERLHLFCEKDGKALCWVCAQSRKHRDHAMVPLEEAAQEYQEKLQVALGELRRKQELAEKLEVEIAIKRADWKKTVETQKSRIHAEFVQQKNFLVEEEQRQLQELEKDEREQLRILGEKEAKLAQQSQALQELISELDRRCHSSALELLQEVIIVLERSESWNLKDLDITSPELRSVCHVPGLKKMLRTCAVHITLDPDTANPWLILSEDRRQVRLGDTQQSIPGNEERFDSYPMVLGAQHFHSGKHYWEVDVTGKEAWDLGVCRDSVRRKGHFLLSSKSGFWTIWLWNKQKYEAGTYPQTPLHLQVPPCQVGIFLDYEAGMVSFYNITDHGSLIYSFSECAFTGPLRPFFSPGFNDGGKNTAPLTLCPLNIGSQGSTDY
UniProt Q8IYM9: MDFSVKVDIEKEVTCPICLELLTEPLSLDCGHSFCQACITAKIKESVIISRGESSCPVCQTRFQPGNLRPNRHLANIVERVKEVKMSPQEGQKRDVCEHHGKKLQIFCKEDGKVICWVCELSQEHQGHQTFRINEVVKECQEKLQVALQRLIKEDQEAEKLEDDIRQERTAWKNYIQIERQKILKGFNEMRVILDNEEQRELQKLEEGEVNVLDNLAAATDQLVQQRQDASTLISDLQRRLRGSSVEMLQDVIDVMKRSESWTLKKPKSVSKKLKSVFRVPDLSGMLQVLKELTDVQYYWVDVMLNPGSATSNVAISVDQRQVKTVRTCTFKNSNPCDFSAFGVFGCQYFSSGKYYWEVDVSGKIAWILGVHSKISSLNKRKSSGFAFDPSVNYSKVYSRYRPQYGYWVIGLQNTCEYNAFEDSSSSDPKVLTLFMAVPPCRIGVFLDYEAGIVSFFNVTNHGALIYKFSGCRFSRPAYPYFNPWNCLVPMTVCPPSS
UniProt Q93009: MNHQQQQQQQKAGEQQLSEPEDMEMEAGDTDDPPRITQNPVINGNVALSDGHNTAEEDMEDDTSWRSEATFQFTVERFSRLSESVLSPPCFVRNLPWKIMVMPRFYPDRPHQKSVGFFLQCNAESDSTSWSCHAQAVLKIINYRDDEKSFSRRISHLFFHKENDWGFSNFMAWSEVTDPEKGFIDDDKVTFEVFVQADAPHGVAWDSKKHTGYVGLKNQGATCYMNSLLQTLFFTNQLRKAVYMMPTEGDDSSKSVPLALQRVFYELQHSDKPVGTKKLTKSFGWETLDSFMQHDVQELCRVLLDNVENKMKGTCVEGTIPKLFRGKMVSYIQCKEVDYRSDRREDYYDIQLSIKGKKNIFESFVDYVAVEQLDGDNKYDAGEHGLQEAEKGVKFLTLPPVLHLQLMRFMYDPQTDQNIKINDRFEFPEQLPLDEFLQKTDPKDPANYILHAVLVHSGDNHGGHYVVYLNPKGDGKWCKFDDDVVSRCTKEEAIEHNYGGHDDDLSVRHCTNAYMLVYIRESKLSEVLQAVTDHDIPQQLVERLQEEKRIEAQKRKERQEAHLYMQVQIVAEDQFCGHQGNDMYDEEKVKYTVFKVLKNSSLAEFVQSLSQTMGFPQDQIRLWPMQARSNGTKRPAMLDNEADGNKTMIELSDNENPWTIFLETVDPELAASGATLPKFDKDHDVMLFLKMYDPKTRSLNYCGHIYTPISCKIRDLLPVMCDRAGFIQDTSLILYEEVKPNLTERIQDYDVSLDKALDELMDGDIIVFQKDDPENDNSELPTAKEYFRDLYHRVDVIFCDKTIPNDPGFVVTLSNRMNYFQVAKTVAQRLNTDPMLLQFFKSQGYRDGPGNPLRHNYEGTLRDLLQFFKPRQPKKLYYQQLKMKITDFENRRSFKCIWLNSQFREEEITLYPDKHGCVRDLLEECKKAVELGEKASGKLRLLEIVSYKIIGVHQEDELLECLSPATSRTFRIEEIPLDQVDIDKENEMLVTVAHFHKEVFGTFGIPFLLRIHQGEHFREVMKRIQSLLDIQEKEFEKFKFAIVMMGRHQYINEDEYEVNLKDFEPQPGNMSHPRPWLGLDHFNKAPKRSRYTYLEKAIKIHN

For another experiment, the target named is Flag-BirA* tagged p62 (UniProt Q13501). The experiment is described as follows: proximity labelling; BioID2-p62 in PLC/PRF/5 cells, glutamine starvation 36 h, biotin (4 nM) for the last 24 h, Baf-A1 (400 nM) for 2 h; pull-down with streptavidin-conjugated beads.

Results are given in words; binding and its absence hold for the method and conditions named. Binding seen in cells or lysates may run through a third protein. These calls come from enrichment with a bait or labelling near it, and not all partners need be listed.

Consider “TRIM21, hit of the IFRD1 IP-MS (from UniProt P19474 1-475)”, for which, in experiment [1], the binding entry was “binds”.
As to “TRIM22, hit of the IFRD1 IP-MS (from UniProt Q8IYM9 1-498)”, the binding entry in experiment [1] was “binds”.
The same measure, in the same setting: then “USP7, hit of the IFRD1 IP-MS (from UniProt Q93009 1-1102)”, with “binds”.
Consider “histone H1.0 in PLC/PRF/5 cells (from UniProt P07305 1-194)”, for which the binding entry in the experiment with Flag-BirA* tagged p62 is given as “binds”.
